No constants are given. Whether binding was seen depends on the method and setting. Binding seen in cells or lysates may run through a third protein. Binding calls can cover weak binding; strength is not graded here.
Tests used:
[1] = molecular target: Recombinant GST-Zfra; assay: pull-down; glutathione-Sepharose 4B beads coated with GST or GST-Zfra; SK-N-SH cells untreated, treated with TNF (50 ng/ml; 10 or 40 min) or exposed to UV light (120 mJoule/cm^2, then 1 hr in culture); Western blotting; only the target purified
[2] = molecular target: Endogenous Zfra (SK-N-SH cells) (human (endogenous in SK-N-SH)); assay: co-IP; immunoprecipitation with specific antibodies against Zfra; endogenous proteins of SK-N-SH cells, with or without UV light (120 mJoule/cm^2)

B1: Endogenous Tyr33-phosphorylated WOX1 (SK-N-SH cells) (protein, UniProt Q9NZC7 1-414)
chain: MAALRYAGLDDTDSEDELPPGWEERTTKDGWVYYANHTEEKTQWEHPKTGKRKRVAGDLPYGWEQETDENGQVFFVDHINKRTTYLDPRLAFTVDDNPTKPTTRQRYDGSTTAMEILQGRDFTGKVVVVTGANSGIGFETAKSFALHGAHVILACRNMARASEAVSRILEEWHKAKVEAMTLDLALLRSVQHFAEAFKAKNVPLHVLVCNAATFALPWSLTKDGLETTFQVNHLGHFYLVQLLQDVLCRSAPARVIVVSSESHRFTDINDSLGKLDFSRLSPTKNDYWAMLAYNRSKLCNILFSNELHRRLSPRGVTSNAVHPGNMMYSNIHRSWWVYTLLFTLARPFTKSMQQGAATTVYCAAVPELEGLGGMYFNNCCRCMPSPEAQSEETARTLWALSERLIQERLGSQSG
modifications: phosphotyrosine at 33
- binding [1]: binds

B2: Endogenous WOX1 (SK-N-SH cells) (protein, UniProt Q9NZC7 1-414)
chain: MAALRYAGLDDTDSEDELPPGWEERTTKDGWVYYANHTEEKTQWEHPKTGKRKRVAGDLPYGWEQETDENGQVFFVDHINKRTTYLDPRLAFTVDDNPTKPTTRQRYDGSTTAMEILQGRDFTGKVVVVTGANSGIGFETAKSFALHGAHVILACRNMARASEAVSRILEEWHKAKVEAMTLDLALLRSVQHFAEAFKAKNVPLHVLVCNAATFALPWSLTKDGLETTFQVNHLGHFYLVQLLQDVLCRSAPARVIVVSSESHRFTDINDSLGKLDFSRLSPTKNDYWAMLAYNRSKLCNILFSNELHRRLSPRGVTSNAVHPGNMMYSNIHRSWWVYTLLFTLARPFTKSMQQGAATTVYCAAVPELEGLGGMYFNNCCRCMPSPEAQSEETARTLWALSERLIQERLGSQSG
- binding [1]: binds
- binding [2]: binds
